In all, about 33,000 sequences were measured (“E-score (-0.5 to 0.5)”: median about -0.0034, highest 2% from about 0.25 on). The list shows a part of the results.
Target: T1, Yap3 (UniProt P38749)
T1 sequence: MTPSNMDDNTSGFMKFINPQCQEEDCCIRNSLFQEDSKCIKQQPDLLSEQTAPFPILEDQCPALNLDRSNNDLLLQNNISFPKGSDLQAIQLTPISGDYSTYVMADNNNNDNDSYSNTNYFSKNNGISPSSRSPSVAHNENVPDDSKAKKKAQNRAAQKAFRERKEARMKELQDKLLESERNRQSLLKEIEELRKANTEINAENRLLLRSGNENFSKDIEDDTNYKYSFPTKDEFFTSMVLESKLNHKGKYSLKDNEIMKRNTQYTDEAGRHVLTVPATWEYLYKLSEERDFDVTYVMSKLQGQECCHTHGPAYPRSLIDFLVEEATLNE
Experiment: PBM E-score (8-mer binding enrichment) (E-score (-0.5 to 0.5)); higher = stronger / more preferred TF binding
Conditions: protein concentration: 100 nM; construct: GST-full length
Summary of the method: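 Bound GST-tagged yeast transcription factors, applied at about 100-200 nM to double-stranded universal all-10-mer Agilent arrays, were detected with fluorescent anti-GST. Scans were normalised with masliner. A modified Wilcoxon-Mann-Whitney statistic, the E-score, was assigned to each ungapped eight-base word pooled with its reverse complement by the Universal PBM Analysis Suite.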

Sequence	PBM E-score
GGGGCCTA	-0.368
ACAACTAC	0.0726
GTAGTAAA	0.0955
ATCCGCAG	0.147
CGCTATAG	-0.0258
GCACGTAA	0.0393
ACATAATG	0.211
ATAATTAC	0.333
ACGATAAT	0.184
GTCTTCCA	-0.108
ATGTCCGG	-0.133
AGAAACGC	-0.12
AAGGATAA	0.0694
ACCGGCTA	-0.0839
GCTTGACC	-0.0702
GGAAGCGA	-0.0648
AAAGGAGA	-0.055
CCAAGGTA	-0.132
GGCAGGTA	-0.158
CCATGCCG	0.0611
ATATTAGA	0.175
GTGTTAAA	0.0872
AAAGACTC	-0.0985
AAGGATCT	-0.109
CCGGAACG	0.0101

Sequence	PBM E-score
AGCAGGAA	0.059
ATAGACTG	0.0697
CGAAACTC	-0.112
ATCCGAAT	0.238
CTGTGATA	-0.106
TCGAACCA	-0.00191
CGTCGTCA	-0.0331
GAATCATC	-0.108
CATCTGAA	0.054
AGTCAGGC	0.133
GCAAGAGA	-0.136
ACCGATTC	-0.128
GGCGGTTA	-0.0959
GCTCGTAC	0.065
AGCATTAA	0.138
CTGTGGTC	-0.11
CTATCAGA	-0.231
AAACCCCA	-0.029
ACGCGCGC	0.181
CGATATTC	0.0953
AATACATG	0.151
AGGCTGGG	-0.278
ACCTCTAA	-0.0316
TGTATTAA	0.126
ACGACCAG	0.0749

Sequence	PBM E-score
CGCTGTAA	0.1
ACGAACAT	0.149
ACACATTG	0.104
CCGGGACG	-0.285
CATCTCCA	0.0148
TTATACAA	0.198
ATTGACTG	0.0853
ATTTTCGG	0.109
GGCCTCCC	-0.234
ACTCCCAT	0.0179
TGCTTCCA	-0.094
AGGGCCAG	-0.107
ACTGCAGT	0.0567
AGAATTCA	-0.00765
CTTCTGGA	-0.0873
ATCAGCCG	-0.181
ACATCCGC	0.0197
TGGGAGAA	-0.174
ACAGGAGA	0.0418
CATCCGAC	-0.0371
ACAGGATG	0.152
ACTCCCAG	0.0568
GACATGCC	-0.129
AGAAATCT	0.147
GTCATCTA	0.00466

Sequence	PBM E-score
ATAAGGAA	0.0433
GGGATTAA	0.0796
CAATAGCG	-0.00331
CTATTAAC	0.188
AGCCCTAC	0.0007
GTGTTGCA	0.0357
ATCAACAG	0.132
AGATAGAA	0.111
ACACTATA	0.138
CATGAGGC	-0.111
GTCTATAA	0.129
AGCTCCAT	-0.13
GGTATATA	0.239
CTTATCGA	0.174
TAAACCCA	0.114
CTCCGTGC	-0.237
ACAGGGAC	-0.168
GAGTCAGC	-0.0237
CCTAGGAC	-0.0486
CCCCTCAC	-0.203
GCGATGCC	-0.287
GTGAGCAA	-0.0315
AAGAGCGT	0.108
GCTACGCA	-0.198
ATTCACAC	0.135

Sequence	PBM E-score
GCTTCTGA	0.054
GGAACTTA	0.111
AGACATGA	0.0384
AGCATATG	-0.0618
ATTGGGGC	-0.0386
AAGGCCCG	-0.298
AAGATAGG	-0.0546
ACAAATCG	0.0463
CCGCAAGC	-0.195
GTCGCGAC	0.324
AACCTATG	-0.0273
AGCTTAAA	-0.0384
CGGTAAGC	-0.0446
GAAATTCA	0.116
ACTGATTC	-0.0161
CACGTGCA	0.00791
CTTAGCAA	-0.0494
AACGTGCC	-0.0468
GGCACTGA	-0.0265
AGCTTCTG	-0.178
CTAACTTC	0.0236
AGAACATC	0.11
AATGTGCG	0.15
ACAAAGGC	-0.0378
ATGAGGGC	-0.0291

Sequence	PBM E-score
GGACCTCA	-0.0617
GCTTCAAA	-0.0578
AACAACAT	0.191
GCGCTTAC	-0.0325
CACCCGCA	-0.187
AGATTTTG	0.0721
CACAGAGC	-0.163
GACATAAC	0.22
GGGCTACA	-0.152
TGCGGACA	0.175
ACTCAAGT	-0.0333
AGTGTAGG	0.00332
CAACGCCC	-0.162
TAAACAAA	0.195
CGGCTTGA	-0.0693
AAATTCGC	0.129
CGCTGCTC	-0.133
CCTTAATC	-0.0898
CGGATATA	0.189
CTTTGGAA	-0.0122
CTACAATC	0.193
ATCGCGTG	0.132
CAATACAG	0.0498
CCGACAGG	-0.0616
GGCCAGTA	-0.0503

Sequence	PBM E-score
AGATCCCG	0.0457
AAGGTTAG	0.101
CGATCAGC	-0.0555
AGGCTACA	-0.0383
ACTCTCAA	-0.108
CAGGGCCC	-0.218
CGTATTTA	0.313
ACTTAAAG	-0.1
ACCACCCC	-0.0856
AATGTTAT	0.222
CCTTACCA	0.00813
CCAGCACC	-0.26
CACCTCTA	0.158
CTGTTAAC	0.216
CGTAGCCC	-0.117
ATTTAACG	0.204
GAAACCGC	0.00609
AATGTTGG	0.0757
AAGGGCCT	-0.251
GCACTACA	-0.112
ATCGATTA	0.218
CCAATGCC	-0.162
ACGTATCT	-0.0974
TCGGAACA	0.185
GGGGCTGA	-0.167

Sequence	PBM E-score
ACTCCTAG	-0.232
ATGACACC	-0.0117
AGAGTCGC	0.019
GAGCGTCC	-0.223
AATGGACG	0.167
ACTAACGC	0.0336
AACAAGAC	0.0841
AGCTCCGC	-0.109
GACTGATA	-0.0592
CGGTACAC	-0.123
AACGGCGA	0.252
GGGCATCA	-0.242
CTGATGTC	0.0994
ACTGAACC	-0.125
CACTGGGA	-0.0348
TAGTTCCA	0.14
AATATCTG	0.084
ATTCTTCA	0.0724
AGGGGGGA	-0.261
AATGGTGC	-0.146
GAATCCCA	0.107
TCGTTCAA	0.0575
CTATTAAA	0.135
AATTAGTG	0.269
CCTGGCAC	-0.155

Sequence	PBM E-score
ATTGCTGC	0.0525
CAACCCTC	-0.0647
CCCGGCTA	-0.2
GGTTAACA	0.1
AGTATAAC	-0.0565
CGGAGTCA	-0.0856
CAGGGCCG	-0.22
ATTGTCCA	0.0865
AGGTTTAG	0.0249
AACAATTC	0.106
CGCGCGGC	0.167
CAAAAAGC	0.129
ATCTTAAC	0.125
TATCCCGA	0.149
CAGGTCTC	-0.112
CTAGAAGC	-0.191
CCAGTAGA	0.107
GGATCTTA	0.0326
ATCATAAC	0.144
AGCATTCG	-0.106
AGAAGCTG	-0.112
ACCTTAGA	-0.006
AGTAGAAC	-0.163
ACAGATTA	-0.0494
AGGATGCC	-0.186

Sequence	PBM E-score
GCAGCATA	-0.0295
CCCCTACA	-0.226
ACGCAAAA	0.189
AGTTTCAT	0.173
TACAGACA	0.0564
TGACGACA	0.0856
CCCGCGCA	-0.0859
GGTTTTAC	-0.221
CCTTCCGA	-0.16
CCACCGCA	-0.102
TACATTCA	0.161
CATAACCG	0.00583
CCCCGGCC	-0.35
ATCTTGTG	0.0325
AAGGAAGT	0.0285
AACAAAGC	0.134
ATCCTCAG	0.166
CGCCTCGA	-0.00388
GCAAGCAA	-0.0437
AATTGGAG	-0.0503
CCGCCGCC	-0.171
GAGCACAA	0.066
ACTCGTCC	-0.148
CAAATTTA	0.203
CATGCGAC	0.0586

Sequence	PBM E-score
ATGCTTAC	0.00368
AACGGTAG	-0.0242
GCACTGGC	-0.0323
CACCAGAC	-0.0524
GAAAAGCA	0.0951
CTTCGAAG	0.0178
GATCGTGC	-0.00651
TATTCAAA	0.138
AGTGTGGA	0.0487
ATTCGACG	0.166
ATACCCAC	-0.0482
ACATTCCC	0.00295
GACGAAAC	0.00983
ACTTGGAG	-0.0381
AGTCGACT	0.277
ACAGATGT	-0.0809
GCGCGCGA	0.121
GGTGCGCA	0.0309
ACTATGGC	0.0572
AGGTTTGC	-0.0512
CCTCTATC	-0.0735
ACGCGAGG	0.0928
AAGCGGTA	0.0894
AGGACCGA	-0.0553
CAGCGTGA	-0.0264

Sequence	PBM E-score
AGGATTTA	0.153
ATGTTTAG	0.141
TCTCCCAA	-0.0993
CTCATCAG	0.145
GCTTCACC	-0.15
AAGATAAA	0.286
AGTGTCAT	0.153
ATATTGTG	0.147
ATTAACAG	0.0676
AGAGGCAC	-0.224
CAGTTCAC	-0.0312
GTGCGCGA	0.00408
CACACAAA	0.103
CAGTATCA	0.0462
ATGCCACG	-0.15
GTATGGCA	-0.023
GTCAGCTA	-0.0756
CACTTGTA	0.0741
ACCACGGA	-0.236
GCAGTGCA	0.00906
TAACTGAA	0.0253
CTGAGCTA	-0.155
TTAGAAAA	0.0486
ACTTTTCG	0.0705
ACGGCTGG	-0.224

Already shown: an excerpt of the list.
Sequence	PBM E-score
GAAACCGC	0.00609
AATGTTGG	0.0757
AAGGGCCT	-0.251
GCACTACA	-0.112
ATCGATTA	0.218
CCAATGCC	-0.162
ACGTATCT	-0.0974
TCGGAACA	0.185
GGGGCTGA	-0.167
ACTCCTAG	-0.232
ATGACACC	-0.0117
AGAGTCGC	0.019
GAGCGTCC	-0.223
AATGGACG	0.167
ACTAACGC	0.0336
AACAAGAC	0.0841
AGCTCCGC	-0.109
GACTGATA	-0.0592
CGGTACAC	-0.123
AACGGCGA	0.252
GGGCATCA	-0.242
CTGATGTC	0.0994
ACTGAACC	-0.125
CACTGGGA	-0.0348
TAGTTCCA	0.14
AATATCTG	0.084
ATTCTTCA	0.0724
AGGGGGGA	-0.261
AATGGTGC	-0.146
GAATCCCA	0.107
TCGTTCAA	0.0575
CTATTAAA	0.135
AATTAGTG	0.269
CCTGGCAC	-0.155
ATTGCTGC	0.0525
CAACCCTC	-0.0647
CCCGGCTA	-0.2
GGTTAACA	0.1
AGTATAAC	-0.0565
CGGAGTCA	-0.0856
CAGGGCCG	-0.22
ATTGTCCA	0.0865
AGGTTTAG	0.0249
AACAATTC	0.106
CGCGCGGC	0.167
CAAAAAGC	0.129
ATCTTAAC	0.125
TATCCCGA	0.149
CAGGTCTC	-0.112
CTAGAAGC	-0.191
CCAGTAGA	0.107
GGATCTTA	0.0326
ATCATAAC	0.144
AGCATTCG	-0.106
AGAAGCTG	-0.112
ACCTTAGA	-0.006
AGTAGAAC	-0.163
ACAGATTA	-0.0494
AGGATGCC	-0.186
GCAGCATA	-0.0295
CCCCTACA	-0.226
ACGCAAAA	0.189
AGTTTCAT	0.173
TACAGACA	0.0564
TGACGACA	0.0856
CCCGCGCA	-0.0859
GGTTTTAC	-0.221
CCTTCCGA	-0.16
CCACCGCA	-0.102
TACATTCA	0.161
CATAACCG	0.00583
CCCCGGCC	-0.35
ATCTTGTG	0.0325
AAGGAAGT	0.0285
AACAAAGC	0.134
ATCCTCAG	0.166
CGCCTCGA	-0.00388
GCAAGCAA	-0.0437
AATTGGAG	-0.0503
CCGCCGCC	-0.171
GAGCACAA	0.066
ACTCGTCC	-0.148
CAAATTTA	0.203
CATGCGAC	0.0586
ATGCTTAC	0.00368
AACGGTAG	-0.0242
GCACTGGC	-0.0323
CACCAGAC	-0.0524
GAAAAGCA	0.0951
CTTCGAAG	0.0178
GATCGTGC	-0.00651
TATTCAAA	0.138
AGTGTGGA	0.0487
ATTCGACG	0.166
ATACCCAC	-0.0482
ACATTCCC	0.00295
GACGAAAC	0.00983
ACTTGGAG	-0.0381
AGTCGACT	0.277
ACAGATGT	-0.0809
GCGCGCGA	0.121
GGTGCGCA	0.0309
ACTATGGC	0.0572

Remaining list, next part:

Sequence	PBM E-score
CGCTGATA	-0.108
ACAGGCGG	-0.0762
AGGTACGG	-0.166
ATGACATG	0.0548
CAGAGTAG	0.101
GTCAAAAA	0.055
CTTCGAGA	-0.164
CCTAGTCA	0.0001
AAAGTGAC	-0.0256
ACGACAAG	0.0627
GACAGTCC	-0.198
ACTGGCCT	-0.135
TAAATATA	0.297
GCTTGGCA	-0.188
CATGTGTC	0.0511
ACCATACC	-0.0173
AATATACC	0.185
CCCAGAGA	-0.0962
ATCAGCAT	0.107
ATGAACCA	0.198
CCCTACGA	-0.0192
CGACCTCA	-0.0898
ACGAGGAG	0.0509
AAGTGGGC	0.11
AAAAGTTT	0.0426

Sequence	PBM E-score
CCGGTTCC	-0.0896
ACTTATCG	0.104
CGAGCCCG	-0.254
CCTACTAA	0.073
TGCGAGAA	-0.0655
TATGCTGA	-0.0774
ACTGCAAA	-0.00094
CCCTAACC	0.00532
CCTGGCAG	-0.0265
CCGTGGAA	-0.00863
CTGCCCAC	-0.168
GCATAAGC	0.16
ACTCCTAC	-0.0361
AGACTCGG	-0.231
CAACATTA	0.209
ACGTCGAC	0.0881
ACCACTCT	-0.0304
ATACCAAG	0.116
AATGTTAC	0.111

Source: the supplement of paper PMC3334620
